Results are given in words; binding and its absence hold for the method and conditions named. In cells and extracts the contact can be indirect. Where a sequence is shown, tags or fusion partners need not be part of it.
Molecular target: T1, HA-NOD1 (human) (UniProt Q9Y239)
T1 sequence: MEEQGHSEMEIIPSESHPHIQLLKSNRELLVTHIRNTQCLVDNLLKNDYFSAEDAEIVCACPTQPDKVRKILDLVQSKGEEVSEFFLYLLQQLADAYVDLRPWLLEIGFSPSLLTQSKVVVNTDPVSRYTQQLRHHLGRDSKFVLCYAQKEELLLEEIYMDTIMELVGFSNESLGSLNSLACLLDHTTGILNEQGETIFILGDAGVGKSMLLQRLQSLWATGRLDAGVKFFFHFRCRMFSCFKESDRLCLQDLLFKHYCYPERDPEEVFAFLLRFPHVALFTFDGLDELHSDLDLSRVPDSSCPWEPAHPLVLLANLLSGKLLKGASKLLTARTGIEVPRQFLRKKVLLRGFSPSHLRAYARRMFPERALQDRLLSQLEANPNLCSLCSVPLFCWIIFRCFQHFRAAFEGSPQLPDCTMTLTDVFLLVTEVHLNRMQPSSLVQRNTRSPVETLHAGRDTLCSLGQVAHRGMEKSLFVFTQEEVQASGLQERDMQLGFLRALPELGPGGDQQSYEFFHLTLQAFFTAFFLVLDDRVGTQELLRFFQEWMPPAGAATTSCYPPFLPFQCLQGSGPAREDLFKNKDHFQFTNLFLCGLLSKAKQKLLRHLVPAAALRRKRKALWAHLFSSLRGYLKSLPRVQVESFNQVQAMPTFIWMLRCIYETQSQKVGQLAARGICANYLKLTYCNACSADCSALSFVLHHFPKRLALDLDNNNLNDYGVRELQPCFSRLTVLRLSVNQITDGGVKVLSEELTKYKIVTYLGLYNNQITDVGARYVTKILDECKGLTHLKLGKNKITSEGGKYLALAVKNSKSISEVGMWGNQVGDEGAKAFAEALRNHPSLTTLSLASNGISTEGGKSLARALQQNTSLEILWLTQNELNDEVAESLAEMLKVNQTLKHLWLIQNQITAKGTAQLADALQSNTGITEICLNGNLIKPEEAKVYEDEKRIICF
Test: co-IP; HA-tagged NOD1/2 immunoprecipitated with anti-HA mAb from lysates of HEK293T cells coexpressing GIV, stimulated or not with MDP; immunoblot

binding: no binding
Substance: GIV-FLAG

From article PMC12646664
